Source: US20150023989A1 (SEATTLE GENETICS, INC., priority 2011, published 2015)

assay: general procedure: solution-phase peptide synthesis; HATU/N,N-diisopropylethylamine; EDC/HOBt/N,N-diisopropylethylamine; details: conjugation step, over 2 stages, trifluoroacetate

Substance | conjugation yield
N-{4-[2-(6-aminohexanoyl)hydrazino]-4-oxobutyl}-N-methyl-L-valyl-N-[(3R,4S,5S)-1-{(2S)-2-[(1R,2R)-3-{[(2S)-1-amino-3-(1H-indol-3-yl)-1-oxopropan-2-yl]amino}-1-methoxy-2-methyl-3-oxopropyl]pyrrolidin-1-yl}-3-methoxy-5-methyl-1-oxoheptan-4-yl] | 68% of theory over 2 stages
N-(2-{2-[2-(2-aminoethoxy)ethoxy]ethoxy}ethyl)-N-methyl-L-valyl-N-[(3R,4S,5S)-3-methoxy-1-{(2S)-2-[(1R,2R)-1-methoxy-2-methyl-3-{[(1S,2R)-1-(1,2-oxazinan-2-ylcarbonyl)-2-phenyl cyclopropyl]amino}-3-oxopropyl]pyrrolidin-1-yl}-5-methyl-1-oxoheptan-4-yl]-N-methyl-L-valinamide | 66%

same assay, conditions: conjugation step, trifluoroacetate

Substance | conjugation yield [%]
N-[1-(2,5-dioxo-2,5-dihydro-1H-pyrrol-1-yl)-12,15-dioxo-3,6,9-trioxa-13,14-diazaoctadecan-18-yl]-N-methyl-L-valyl-N-[(3R,4S,5S)-3-methoxy-1-{(2S)-2-[(1R,2R)-1-methoxy-2-methyl-3-{[(2S)-1-(1,2-oxazinan-2-yl)-1-oxo-3-phenylpropan-2-yl]amino}-3-oxopropyl]pyrrolidin-1-yl}-5-methyl-1-oxoheptan-4-yl]-N-me | 51
N-(4-{2-[6-(2,5-dioxo-2,5-dihydro-1H-pyrrol-1-yl)hexanoyl]hydrazino}-4-oxobutyl)-N-methyl-L-valyl-N-[(3R,4S,5S)-1-{(2S)-2-[(1R,2R)-3-{[(2S)-1-(benzylamino)-1-oxo-3-phenylpropan-2-yl]amino}-1-methoxy-2-methyl-3-oxopropyl]pyrrolidin-1-yl}-3-methoxy-5-methyl-1-oxoheptan-4-yl]-N-methyl-L-valinamide | 53
N-(4-{2-[6-(2,5-dioxo-2,5-dihydro-1H-pyrrol-1-yl)hexanoyl]hydrazino}-4-oxobutyl)-N-methyl-L-valyl-N-[(3R,4S,5S)-1-{(2S)-2-[(1R,2R)-3-{[(1S,2R)-1-(ethoxycarbonyl)-2-phenylcyclopropyl]amino}-1-methoxy-2-methyl-3-oxopropyl]pyrrolidin-1-yl}-3-methoxy-5-methyl-1-oxoheptan-4-yl]-N-methyl-L-valinamide | 37
N-(4-{2-[6-(2,5-dioxo-2,5-dihydro-1H-pyrrol-1-yl)hexanoyl]hydrazino}-4-oxobutyl)-N-methyl-L-valyl-N-[(3R,4S,5S)-1-{(2S)-2-[(1R,2R)-3-{[(2S)-1-amino-3-(1H-indol-3-yl)-1-oxopropan-2-yl]amino}-1-methoxy-2-methyl-3-oxopropyl]pyrrolidin-1-yl}-3-methoxy-5-methyl-1-oxoheptan-4-yl]-N-methyl-L-valinamide | 33
N-(6-{2-[6-(2,5-dioxo-2,5-dihydro-1H-pyrrol-1-yl)hexanoyl]hydrazino}-6-oxohexyl)-N-methyl-L-valyl-N-[(3R,4S,5S)-1-{(2S)-2-[(1R,2R)-3-{[(2S)-1-amino-3-(1H-indol-3-yl)-1-oxopropan-2-yl]amino}-1-methoxy-2-methyl-3-oxopropyl]pyrrolidin-1-yl}-3-methoxy-5-methyl-1-oxoheptan-4-yl]-N-methyl-L-valinamide | 16
N-(4-{2-[6-(2,5-dioxo-2,5-dihydro-1H-pyrrol-1-yl)hexanoyl]-1-methylhydrazino}-4-oxobutyl)-N-methyl-L-valyl-N-[(3R,4S,5S)-3-methoxy-1-{(2S)-2-[(1R,2R)-1-methoxy-2-methyl-3-{[(1S,2R)-1-(1,2-oxazinan-2-ylcarbonyl)-2-phenylcyclopropyl]amino}-3-oxopropyl]pyrrolidin-1-yl}-5-methyl-1-oxoheptan-4-yl]-N-meth | 30
N-[4-({1-[4-(2,5-dioxo-2,5-dihydro-1H-pyrrol-1-yl)butanoyl]piperidin-4-yl}oxy)-4-oxobutyl]-N-methyl-L-valyl-N-[(3R,4S,5S)-3-methoxy-1-{(2S)-2-[(1R,2R)-1-methoxy-2-methyl-3-{[(1S,2R)-1-(1,2-oxazinan-2-ylcarbonyl)-2-phenylcyclopropyl]amino}-3-oxopropyl]pyrrolidin-1-yl}-5-methyl-1-oxoheptan-4-yl]-N-met | 34
N-(4-{2-[6-(2,5-dioxo-2,5-dihydro-1H-pyrrol-1-yl)hexanoyl]hydrazino}-4-oxobutyl)-N-methyl-L-valyl-N-[(3R,4S,5S)-1-{(2S)-2-[(1R,2R)-3-({(2S)-1-[benzyl(methyl)amino]-1-oxo-3-phenylpropan-2-yl}amino)-1-methoxy-2-methyl-3-oxopropyl]pyrrolidin-1-yl}-3-methoxy-5-methyl-1-oxoheptan-4-yl]-N-methyl-L-valinam | 15
N-(4-{2-[6-(2,5-dioxo-2,5-dihydro-1H-pyrrol-1-yl)hexanoyl]hydrazino}-4-oxobutyl)-N-methyl-L-valyl-N-[(3R,4S,5S)-1-{(2S)-2-[(1R,2R)-3-{[(2S)-1-(benzyloxy)-3-(1H-indol-3-yl)-1-oxopropan-2-yl]amino}-1-methoxy-2-methyl-3-oxopropyl]pyrrolidin-1-yl}-3-methoxy-5-methyl-1-oxoheptan-4-yl]-N-methyl-L-valinami | 58
N-(4-{2-[6-(2,5-dioxo-2,5-dihydro-1H-pyrrol-1-yl)hexanoyl]hydrazino}-4-oxobutyl)-N-methyl-L-valyl-N-[(3R,4S,5S)-3-methoxy-1-{(2S)-2-[(1R,2R)-1-methoxy-2-methyl-3-oxo-3-{[(1S,2R)-2-phenyl-1-(propylcarbamoyl)cyclopropyl]amino}propyl]pyrrolidin-1-yl}-5-methyl-1-oxoheptan-4-yl]-N-methyl-L-valinamide | 22
N-(4-{2-[6-(2,5-dioxo-2,5-dihydro-1H-pyrrol-1-yl)hexanoyl]hydrazino}-4-oxobutyl)-N-methyl-L-valyl-N-[(3R,4S,5S)-1-{(2S)-2-[(1R,2R)-3-{[(2S)-1-(benzylamino)-3-(1H-indol-3-yl)-1-oxopropan-2-yl]amino}-1-methoxy-2-methyl-3-oxopropyl]pyrrolidin-1-yl}-3-methoxy-5-methyl-1-oxoheptan-4-yl]-N-methyl-L-valina | 52

same assay, conditions: late stage modification step, over 2 stages, trifluoroacetate

Substance | step yield [%]
N-(6-aminohexyl)-N-methyl-L-valyl-N-[(3R,4S,5S)-1-{(2S)-2-[(1R,2R)-3-{[(1S,2R)-1-(1,4-dihydro-3H-2,3-benzoxazin-3-ylcarbonyl)-2-phenylcyclopropyl]amino}-1-methoxy-2-methyl-3-oxopropyl]pyrrolidin-1-yl}-3-methoxy-5-methyl-1-oxoheptan-4-yl]-N-methyl-L-valinamide | 23
N-(6-aminohexyl)-N-methyl-L-valyl-N-[(3R,4S,5S)-3-methoxy-1-{(2S)-2-[(1R,2R)-1-methoxy-2-methyl-3-{[(2S,3S)-1-(1,2-oxazinan-2-yl)-1-oxo-3-phenylbutan-2-yl]amino}-3-oxopropyl]pyrrolidin-1-yl}-5-methyl-1-oxoheptan-4-yl]-N-methyl-L-valinamide | 63

same assay, conditions: late stage modification step, trifluoroacetate

Substance | step yield [%] | difficulty met
N-{2-[2-(2-{3-[(2,5-dioxopyrrolidin-1-yl)oxy]-3-oxopropoxy}ethoxy)ethoxy]ethyl}-N-methyl-L-valyl-N-[(3R,4S,5S)-1-{(2S)-2-[(1R,2R)-3-{[(2S)-1-amino-3-(1H-indol-3-yl)-1-oxopropan-2-yl]amino}-1-methoxy-2-methyl-3-oxopropyl]pyrrolidin-1-yl}-3-methoxy-5-methyl-1-oxoheptan-4-yl]-N-methyl-L-valinamide | 64 | 
N-(2-{2-[2-(2-carboxyethoxy)ethoxy]ethoxy}ethyl)-N-methyl-L-valyl-N-[(3R,4S,5S)-1-{(2S)-2-[(1R,2R)-3-{[(2S)-1-amino-3-(1H-indol-3-yl)-1-oxopropan-2-yl]amino}-1-methoxy-2-methyl-3-oxopropyl]pyrrolidin-1-yl}-3-methoxy-5-methyl-1-oxoheptan-4-yl]-N-methyl-L-valinamide | 85 | 
N-{4-[(2,5-dioxopyrrolidin-1-yl)oxy]-4-oxobutyl}-N-methyl-L-valyl-N-[(3R,4S,5S)-1-{(2S)-2-[(1R,2R)-3-{[(2S,3S)-1-(benzyloxy)-1-oxo-3-phenylbutan-2-yl]amino}-1-methoxy-2-methyl-3-oxopropyl]pyrrolidin-1-yl}-3-methoxy-5-methyl-1-oxoheptan-4-yl]-N-methyl-L-valinamide | 56 | 
N-[4-({(2R)-1-[(2,5-dioxopyrrolidin-1-yl)oxy]-4-methyl-1-oxopentan-2-yl}amino)-4-oxobutyl]-N-methyl-L-valyl-N-[(3R,4S,5S)-1-{(2S)-2-[(1R,2R)-3-{[(2S)-1-(benzylamino)-1-oxo-3-phenylpropan-2-yl]amino}-1-methoxy-2-methyl-3-oxopropyl]pyrrolidin-1-yl}-3-methoxy-5-methyl-1-oxoheptan-4-yl]-N-methyl-L-valin |  | some of which was hydrolysed to the reactant
N-{6-[(2,5-dioxopyrrolidin-1-yl)oxy]-6-oxohexyl}-N-methyl-L-valyl-N-[(3R,4S,5S)-3-methoxy-1-{(2S)-2-[(1R,2R)-1-methoxy-2-methyl-3-{[(1S,2R)-1-(1,2-oxazinan-2-ylcarbonyl)-2-phenylcyclopropyl]amino}-3-oxopropyl]pyrrolidin-1-yl}-5-methyl-1-oxoheptan-4-yl]-N-methyl-L-valinamide | 41 | 
N-[2-(2-{2-[2-(2,5-dioxo-2,5-dihydro-1H-pyrrol-1-yl)ethoxy]ethoxy}ethoxy)ethyl]-N-methyl-L-valyl-N-[(3R,4S,5S)-3-methoxy-1-{(2S)-2-[(1R,2R)-1-methoxy-2-methyl-3-{[(1S,2R)-1-(1,2-oxazinan-2-ylcarbonyl)-2-phenylcyclopropyl]amino}-3-oxopropyl]pyrrolidin-1-yl}-5-methyl-1-oxoheptan-4-yl]-N-methyl-L-valin | 23 | 
N-[3-(2,5-dioxo-2,5-dihydro-1H-pyrrol-1-yl)propyl]-N-methyl-L-valyl-N-[(3R,4S,5S)-3-methoxy-1-{(2S)-2-[(1R,2R)-1-methoxy-2-methyl-3-{[(1S,2R)-1-(1,2-oxazinan-2-ylcarbonyl)-2-phenyl cyclopropyl]amino}-3-oxopropyl]pyrrolidin-1-yl}-5-methyl-1-oxoheptan-4-yl]-N-methyl-L-valinamide | 32 | 
